# Measured values published in PubChem BioAssay AID2685 (National Center for Advancing Translational Sciences (NCATS), 2010).
# The list shows a part of the results. These are further read-outs of the screen, such as a control signal, another cell line or another target. No call is given for them. Compounds called inactive in the main read-out are mostly missing here. The note in brackets gives the kind of curve behind each potency; many fits are weak.
# Assay: qHTS Assay for Lipid Storage Modulators in Drosophila S3 Cells;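 as to cell number change: cells counted by Cell Tracker Red CMTPX staining in the red channel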
# Settings: BODIPY lipid droplet fluorescence, 18-24 h; for cell number change: measured here: cell count max response, cells fed with added oleic acid
# In short: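 Drosophila S3 cells got compounds at several concentrations plus oleic acid (400 uM solution). Laser-scanning cytometry with 488 nm excitation read lipid droplets at 500-530 nm and cells at 575-640 nm. Percent activity was relative to 20 uM Triacsin C.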
# [1] = measured here: lipid fluorescence (Fed channel) AC50, cells fed with added oleic acid
# [2] = measured here: cell number channel AC50, cells fed with added oleic acid
SMILES,cell number change [%],AC50 [1],AC50 [2]
COc1ccc(C(=O)Nc2ccc3ccccc3n2)cc1OC,-26.3,"0.058 µM [falling, full curve, poor fit]",–
COc1ccc([C@@H]2[C@@H]3C(=O)N(C(C)(C)C)C(=O)[C@@H]3[C@]3(CC(C)C)C(=O)N(c4ccc(C(F)(F)F)cc4)C(=O)N23)cc1,–,"29.1 µM [falling, single point]",–
Cc1ccc(OCCNS(=O)(=O)c2ccc(Cl)cc2)cc1,-34.2,–,"29.1 µM [falling, single point]"
O=C(N/N=C/c1ccco1)/C(=C/c1cccc([N+](=O)[O-])c1)NC(=O)c1ccccc1,-8.95,"0.326 µM [falling, full curve, poor fit]",–
CCCCC[C@]12Cc3cc(OC)c(OC)cc3[C@H](O1)c1c(cc(C)oc1=O)O2,1.87,"5.31 µM [rising, single point]",–
Cc1[nH]c2ccccc2c1C(=O)CN1C(=O)NC(C)(c2ccc(Cl)cc2Cl)C1=O (configuration not stated),-15.2,"29.1 µM [falling, single point]",–
Fc1cccc(F)c1-n1c(CN2CCCCC2)csc1=S,-59.7,"16.4 µM [falling, single point]","29.1 µM [falling, single point]"
Cc1cc(NC(=O)CSc2nc3ccccc3n2CC(=O)N2CCCCC2)no1,–,"3.26 µM [rising, partial curve]","2.06 µM [rising, partial curve]"
O=C(COc1ccc(Br)cc1)Nc1ccc(-c2nnc(-c3ccco3)o2)cc1,-112,"29.1 µM [falling, single point]","29.1 µM [falling, single point]"
CC(C)(C)C(=O)NCC12C=CC(O1)C1C(=O)N(c3ccccc3)C(=O)C12 (configuration not stated),–,"6.51 µM [falling, single point]",–
COc1ccc(S(=O)(=O)N(C)c2ccc(C(=O)N3CCCC3)cc2)cc1OC,–,"0.206 µM [falling, single point]",–
O=C(CN1CCN(c2ccccc2F)CC1)NCc1ccccc1,9.34,"4.11 µM [falling, single point]",–
CCN(CC)S(=O)(=O)c1ccc(C(=O)NCCCn2ccnc2)cc1,-0.24,"6.51 µM [falling, single point]",–
Cn1c(=O)c2c(nc(NCCNC(=O)c3ccco3)n2Cc2ccc(F)cc2)n(C)c1=O,6.41,–,"0.082 µM [rising, full curve, poor fit]"
CCn1c(CNC(=O)c2cc(OC)c(OC)c(OC)c2)cc2cc(C)ccc21,–,"6.51 µM [rising, single point]",–
COc1ccc(N2C(=O)c3ccccc3C(C)(C)C2=O)cc1,2.17,"6.51 µM [falling, partial curve, poor fit]",–
CCOCCCNS(=O)(=O)c1ccc(NC(=O)c2ccccc2)cc1,–,"29.1 µM [rising, single point]",–
O=C(CN1C(=O)S/C(=C\c2ccccc2)C1=O)NC1CCS(=O)(=O)C1 (configuration not stated),–,"29.1 µM [falling, single point]",–
Cc1ccc(-c2onc3ccc(Cl)cc23)cc1,-15.4,"6.51 µM [falling, partial curve, poor fit]",–

# No new results follow: an excerpt of the list.
SMILES,cell number change [%],AC50 [1],AC50 [2]
COc1ccc(N2C(=O)c3ccccc3C(C)(C)C2=O)cc1,2.17,"6.51 µM [falling, partial curve, poor fit]",–
CCOCCCNS(=O)(=O)c1ccc(NC(=O)c2ccccc2)cc1,–,"29.1 µM [rising, single point]",–

# Next records.

SMILES,cell number change [%],AC50 [1],AC50 [2]
CCN(Cc1ccccc1)C(=O)c1oc2ccc(C)cc2c1C,-19.2,–,–
CCOC(=O)c1cccc(NC(=O)CCn2cccc2)c1,-16.9,–,"0.00461 µM [falling, full curve, poor fit]"
O=C(OCC(=O)N1CCN(C(=O)c2ccco2)CC1)c1ccccc1C(=O)c1ccccc1,-12.5,"0.13 µM [falling, full curve]",–
Cc1cc(=O)[nH]c(SCC(=O)c2ccc(O)c(O)c2)n1,–,"5.17 µM [rising, partial curve, poor fit]",–
Cc1ccc(C2=NN(C(=O)c3ccco3)C(O)(C(F)(F)F)C2)cc1 (configuration not stated),-30.8,"5.8 µM [falling, full curve]","13 µM [falling, partial curve]"
Cn1c(-c2ccccc2)cc2ccccc21,–,"29.1 µM [rising, single point]",–
COC(=O)[C@@H]1CC[C@H](C)[C@@H](c2ccc(C)cc2)N1C(=O)c1ccc(/C=N/O[C@@H](C)c2cn([C@H](CO)Cc3ccccc3)nn2)cc1,-0.308,"6.51 µM [falling, single point]","3.26 µM [falling, single point]"
COc1nn(-c2ccccc2)c(=O)c(Cl)c1Cl,–,"13 µM [falling, partial curve]",–
COc1ccc(S(=O)(=O)N(C)C)cc1NC(C)C(=O)Nc1cccc(C#N)c1 (configuration not stated),44.5,"18.4 µM [rising, single point]","2.31 µM [rising, partial curve]"
CS(=O)(=O)c1ccc(-c2cccc(NC(=O)COc3ccccc3)c2)nn1,20.9,"4.61 µM [falling, full curve]",–
C=CCc1ccc(OCC(O)CN2CCN(Cc3ccc(Cl)cc3)CC2)c(OC)c1 (configuration not stated),-82.3,"25.9 µM [falling, partial curve]","18.4 µM [falling, single point]"
COCCNC(=O)C1(C)Oc2ccccc2NC1=O (configuration not stated),-18.7,"2.31 µM [falling, full curve]",–
COc1ccc(CCC(=O)NCc2cccc(C(F)(F)F)c2)cc1,12.2,–,–
COc1ccccc1C(=O)Nc1nnn(C)n1,-0.977,–,–
CC1=NN(c2ccccc2)C(=O)C1(C)[N+](=O)[O-] (configuration not stated),4.15,"0.291 µM [rising, full curve, poor fit]",–
CN1CCN(S(=O)(=O)c2cccc(C(=O)Nc3ccccc3N3CCCCC3)c2)CC1,29.5,"20.6 µM [rising, partial curve]",–
CCCOc1ccc(-c2c(C(=O)N/N=C(\C)COc3ccccc3)nnn2-c2nonc2N)cc1,-11.9,"0.13 µM [rising, full curve, poor fit]",–
Cn1c(=O)n(C)c2cc(N3CCCCC3)c(NC(=O)c3cccc(Cl)c3)cc21,-12.3,–,–
